According to publication PMC8495200:
These are yes or no findings as the source states them, for the method shown. Binding seen in cells or lysates may run through a third protein. These calls come from enrichment with a bait or labelling near it, and not all partners need be listed. For some assays here: Tags and fused reporters may be left off the sequences shown.

Protein sequences, listed by entry. Tags and fused reporters are not part of them. Lines headed by an entry give the natural chain unless they say otherwise; changes in a name come on top.
UniProt Q54X06: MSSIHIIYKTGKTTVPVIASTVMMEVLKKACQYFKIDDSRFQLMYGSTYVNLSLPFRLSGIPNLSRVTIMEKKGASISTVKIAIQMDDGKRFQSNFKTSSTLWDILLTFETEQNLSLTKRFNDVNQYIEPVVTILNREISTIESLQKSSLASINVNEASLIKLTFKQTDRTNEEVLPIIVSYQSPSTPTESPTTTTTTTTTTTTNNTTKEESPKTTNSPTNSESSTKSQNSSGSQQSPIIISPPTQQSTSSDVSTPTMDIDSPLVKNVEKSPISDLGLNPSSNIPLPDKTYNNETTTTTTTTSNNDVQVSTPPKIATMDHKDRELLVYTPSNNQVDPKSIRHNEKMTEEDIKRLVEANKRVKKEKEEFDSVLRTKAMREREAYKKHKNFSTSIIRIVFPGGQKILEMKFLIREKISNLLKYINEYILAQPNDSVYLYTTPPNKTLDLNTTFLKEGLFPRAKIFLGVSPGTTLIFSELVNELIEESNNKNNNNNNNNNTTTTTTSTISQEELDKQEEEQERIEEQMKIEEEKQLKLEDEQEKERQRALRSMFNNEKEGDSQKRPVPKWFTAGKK

B1: Putative glutamine synthetase type III (enzyme, UniProt Q54WR9 1-735)
chain: MSNRRREFIEYIDSREPVEADIDISDKADRLTDIYDSDTYGLNAMRETLPSHCYKKIREVMQTGSALDPEIADMVANGMKEWAIKQGATHYCHWFLPLNGLAAEKHDSFISIFPGDDKVLLEFSGMQLIKGEPDASSFPSGGIRSTWEARGYTVWDATSPAFIRREKNGAILCIPTAFCSWTGEALDQKTPLLRSMEYVSNESIITLSSLFNEKHKRISPTLGIEQEFFLIDRKFYLARPDLVNCGRTLIGAKPPKGQEMEDHYFGTMNSRIISCIQEVEWKMWRLGMPLKTRHNEVAPGQYEVAPIFERANIAADHNMMLMDILKNVSTKHGLVCLFHEKPFAGVNGSGKHNNWSLSTDGGSNLLEPGHTPSQNARFILFLTAIIRAVDIHADLLRASVAVPGNEHRLGANEAPPAIISIYLGKELDTVINNIINNTDIQAPGSDDMDLGVVGFPPLPKDSTDRNRTSPFAFTGNKFEFRAVGSSQVVNFPCIVLNTIVAESLRFIREEILREMKVSSRQTAFNKIIKDTLIQHVRVVFNGDGYSGDWKELAKSRGLANLPSTPEALTNINSEKNIKLFSESNILSPVELESRQEILFEIYNKSIKIEANSLYDLVSTLVLPACFAHQKNIAESVNSIMPFIQSQKSFSQPNHQYSHLSEVVESVNLLIEANQKLLALIKQTKDFNSEHSLATFLNQSVIPQMNEVRKFSDHLEGIVEDKSWPVPKYSEILFLR
B2: Hisactophilin-2 (protein, UniProt P42526 1-118)
chain: MGNRAFKAHNGHYLSAEHDHVKTHHGHHDHHTHFHIENHGSKVALRTHCGKYVSIGDHKQVYLSHHLHGDHSLFHLEHHHGKVSIKGHHHHYISVDGHGHVSTSHHHDHHATFEEHIL

Experiments:
[1] = molecular target: BirA-UBXD9 (D. discoideum) (UniProt Q54X06); assay: proximity labelling; BioID: AX2/BirA-UBXD9 cells with 50 uM biotin for 16 h against AX2, streptavidin sepharose beads, mass spectrometry; four replicates, fold change > 1.4 and p < 0.05
[2] = molecular target: GFP-UBXD9 (N-terminally tagged UBXD9) (D. discoideum); assay: affinity purification with mass spectrometry; GFP-trap beads, soluble proteins of AX2 cells expressing UBXD9-GFP or GFP-UBXD9 against AX2/GFP; four replicates, fold change > 1.4 and p < 0.05
[3] = molecular target: UBXD9-GFP (C-terminally tagged UBXD9) (D. discoideum) (UniProt Q54X06); assay: as above

| Binder | binding [1] | binding [2] | binding [3] |
| --- | --- | --- | --- |
| B1 | binds | binds | binds |
| B2 | binds | binds | – |
